From paper PMC7819943, “Rice protein-binding microarrays: a tool to detect cis-acting elements near promoter regions in rice”
This is one part of the list.

Chains of the proteins cited; added tags and fusions are not shown.
UniProt Q0JBA9, entry or part of it: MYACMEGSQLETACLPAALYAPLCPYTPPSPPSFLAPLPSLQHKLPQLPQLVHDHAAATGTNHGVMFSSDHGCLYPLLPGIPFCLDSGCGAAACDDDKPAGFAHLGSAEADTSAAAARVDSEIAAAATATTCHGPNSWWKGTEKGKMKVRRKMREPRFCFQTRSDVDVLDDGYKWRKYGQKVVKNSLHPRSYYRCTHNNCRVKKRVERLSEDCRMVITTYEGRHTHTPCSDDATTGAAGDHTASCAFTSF

molecular target: OsWRKY34 (Oryza sativa, UniProt Q0JBA9 1-250); assay: protein-binding microarray (RPBM); PBS, 2% BSA, 51.3 ng/ul salmon testes DNA, 50 uM zinc acetate, 200 nM TF, 25 C, 1 h; high values mean tight binding; conditions: protein: recombinant; tags: N-terminal polyhistidine and DsRed monomer fusion (pET32a); label: CyDye5-dUTP incorporated in the synthesized complementary strand; 3' TTTTT single-stranded linker to array surface; dsDNA, one strand shown
Procedure, shortened: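 The binding signal is fluorescence intensity per feature, in arbitrary units, read on an Axon 4000B scanner. Polyhistidine- and DsRed-tagged transcription factors (N-terminal fusions) from E. coli BL21-CodonPlus were purified on Ni–NTA and applied at 200 nM for 1 h at 25 °C to a double-stranded, BSA-blocked custom Agilent array in buffer with 50 µM zinc acetate.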

Sequence	binding signal
TGTGTCATATCCAGTTCTAGATTCGTTTTTTTCGGGACGGCGGAGTCACCTAGTGCAG	8270 fluorescence intensity (a.u.)
TCCAACATCAACAGCCAGCTTACGGTAACTTCTCTCACGGCGGAGTCACCTAGTGCAG	9150 fluorescence intensity (a.u.)
TAAATCTCCAGCCAGGAATTCCCGTTGCTATCTCTAGTCTCGGAGTCACCTAGTGCAG	10600 fluorescence intensity (a.u.)
GCAACACCTTGACTTCTCGCATTTACAAACTATATACATACGGAGTCACCTAGTGCAG	9190 fluorescence intensity (a.u.)
CTCTCATCCGATTCCTGCGTTTTTCCTGTGGTTCAATCATCGGAGTCACCTAGTGCAG	17900 fluorescence intensity (a.u.)
AATTGGTTTCTGCTTCTCGCGTTGACAATTTCACTATGCTCGGAGTCACCTAGTGCAG	11100 fluorescence intensity (a.u.)
CATTTTTCAGGCATGTGATGCTTCTTGGGGAGGATTTCATCGGAGTCACCTAGTGCAG	8030 fluorescence intensity (a.u.)
TCATATGGGTTGGTGTATGTGTATTGTGAGTCTGTGTTTGCGGAGTCACCTAGTGCAG	8300 fluorescence intensity (a.u.)
ATATTTCTCTCTTCACGCATCCGTGTCTTCATCCTTGATCCGGAGTCACCTAGTGCAG	8720 fluorescence intensity (a.u.)
CTTCGGTTATACTTTTGCTTTGGAATTGTGTTCCTTTGCTCGGAGTCACCTAGTGCAG	9420 fluorescence intensity (a.u.)
TTACTCCTGGACCAGCATTGCTACAACTATCATTTTCTCCCGGAGTCACCTAGTGCAG	9840 fluorescence intensity (a.u.)
CTGCTCCGGCACTCTCTCCATCTGCGCCGCCGTTTGCCTCCGGAGTCACCTAGTGCAG	10400 fluorescence intensity (a.u.)
CACTGTCACCCAATCCACTCAGCTGCTCTTGCTCTTCCTGCGGAGTCACCTAGTGCAG	10000 fluorescence intensity (a.u.)
ATCGCTCGCTCGCGCGCCACACTCCTCGAACCACCACCACCGGAGTCACCTAGTGCAG	9620 fluorescence intensity (a.u.)
GTATGTCCTCTGTAATAAAATCTCGCGTGCCATAACTATTCGGAGTCACCTAGTGCAG	10000 fluorescence intensity (a.u.)
TCCACTCTCTGCGCGCTTTTTTCTGACAAAACTGATGAGACGGAGTCACCTAGTGCAG	8090 fluorescence intensity (a.u.)
CGCCGACTGTCGCCTCGACCCACCGGCTCTCCGTCCGCTTCGGAGTCACCTAGTGCAG	9600 fluorescence intensity (a.u.)
TCGGTCTCCACGCGCTTTCACCTCCGTATTTTACTCGCGCCGGAGTCACCTAGTGCAG	9250 fluorescence intensity (a.u.)
TATGTTCATTTCCTTATTTGCCTCTCGTCATGTCTCTTGACGGAGTCACCTAGTGCAG	10200 fluorescence intensity (a.u.)
ATATGCGGTTCGTTTTGCTTTGTTCTTCCCTTTTTCTTTCCGGAGTCACCTAGTGCAG	13200 fluorescence intensity (a.u.)
GCCCAACGTTTGACCGTCCGTCTTATTTAAAAAAATTATGCGGAGTCACCTAGTGCAG	8220 fluorescence intensity (a.u.)

Sequence	binding signal
TACCCTACTATCATTTGCGATTTGGGATCAGCATCTCCTACGGAGTCACCTAGTGCAG	9110 fluorescence intensity (a.u.)
GATAATCTGTTACTTGTATGGGGCTCAAACTGTTCTCATTCGGAGTCACCTAGTGCAG	10300 fluorescence intensity (a.u.)
ATTTTTAAAAAAGAAAAGTGTGTGGGTGTGGGCTATTAATCGGAGTCACCTAGTGCAG	11100 fluorescence intensity (a.u.)
CCCCTTTTCGCGCTATCCTTTTCTTGGTCCCGCACGGCGGCGGAGTCACCTAGTGCAG	9160 fluorescence intensity (a.u.)
CTTTTCGGACACAGATCTTGCTCACGCCGCTAGTGCTTGTCGGAGTCACCTAGTGCAG	9820 fluorescence intensity (a.u.)
TCTGCATTGACCATCCTAGTTGGGTTTCTGTTGCTGGTTACGGAGTCACCTAGTGCAG	9830 fluorescence intensity (a.u.)
GGGGTATTTTCTAGTTATCTGAACATGTTATCCCTCTCCTCGGAGTCACCTAGTGCAG	8320 fluorescence intensity (a.u.)
CTCCCACCGCCACCGCTCCGCGCCGCCGTCCCCACCTCCGCGGAGTCACCTAGTGCAG	8950 fluorescence intensity (a.u.)
GACTCGTGCCGTTCGCCCCGACCCACCACCGCTCTCGATGCGGAGTCACCTAGTGCAG	8550 fluorescence intensity (a.u.)
TTCCTGTTCCCGTGTGTTTTCATTGCTCGGCGGCGGGATCCGGAGTCACCTAGTGCAG	8810 fluorescence intensity (a.u.)
TCAAGGGAGATGGAGGGTTGCAGCGGCGGCGGAGGGGCGGCGGAGTCACCTAGTGCAG	12100 fluorescence intensity (a.u.)
CAACCCATCTCTACCGTCCGTCTCCATCCGACACCTTCCGCGGAGTCACCTAGTGCAG	8160 fluorescence intensity (a.u.)
TAGAAGCACCTCAAATACCACCATACTTTTTATTTTTCGTCGGAGTCACCTAGTGCAG	9260 fluorescence intensity (a.u.)
CGACGAGCCGCTGCATGCCCTGGGTCCCGTACTAGTACTACGGAGTCACCTAGTGCAG	9680 fluorescence intensity (a.u.)
CGGGGATGGAGGTGGTGGTGAGGCTGGCGACGGCGGGCCGCGGAGTCACCTAGTGCAG	12100 fluorescence intensity (a.u.)
GTCCCATCTCGCCGAGCGCTGGCCTCACTATCGTCGACTCCGGAGTCACCTAGTGCAG	10700 fluorescence intensity (a.u.)
ACAGTAGCAACCCTGTTTTGACTCCTTTTTTGGCTGCCCACGGAGTCACCTAGTGCAG	9240 fluorescence intensity (a.u.)
GGCGCGGGCGGGGTGGTTAGTTTGCGCGCTAATTACAGTTCGGAGTCACCTAGTGCAG	12300 fluorescence intensity (a.u.)
ATCAGATGCCCAGCCCGACCACTTAACCGCAACGTCATCTCGGAGTCACCTAGTGCAG	9220 fluorescence intensity (a.u.)
ATATACATGTGCATCTCTTGTCCTGTATATATGTCCTTTTCGGAGTCACCTAGTGCAG	8130 fluorescence intensity (a.u.)
TTCACGCAACTCCATTAAAGTCTAACCATTGACTTTTTTCCGGAGTCACCTAGTGCAG	10600 fluorescence intensity (a.u.)

Exported as a markdown table: part of the list above.

| Sequence | binding signal |
| --- | --- |
| GGGGTATTTTCTAGTTATCTGAACATGTTATCCCTCTCCTCGGAGTCACCTAGTGCAG | 8320 fluorescence intensity (a.u.) |
| CTCCCACCGCCACCGCTCCGCGCCGCCGTCCCCACCTCCGCGGAGTCACCTAGTGCAG | 8950 fluorescence intensity (a.u.) |
